Chains of the proteins cited; added tags and fusions are not shown. Lines headed by an entry give the natural chain unless they say otherwise; changes in a name come on top.
UniProt Q06187: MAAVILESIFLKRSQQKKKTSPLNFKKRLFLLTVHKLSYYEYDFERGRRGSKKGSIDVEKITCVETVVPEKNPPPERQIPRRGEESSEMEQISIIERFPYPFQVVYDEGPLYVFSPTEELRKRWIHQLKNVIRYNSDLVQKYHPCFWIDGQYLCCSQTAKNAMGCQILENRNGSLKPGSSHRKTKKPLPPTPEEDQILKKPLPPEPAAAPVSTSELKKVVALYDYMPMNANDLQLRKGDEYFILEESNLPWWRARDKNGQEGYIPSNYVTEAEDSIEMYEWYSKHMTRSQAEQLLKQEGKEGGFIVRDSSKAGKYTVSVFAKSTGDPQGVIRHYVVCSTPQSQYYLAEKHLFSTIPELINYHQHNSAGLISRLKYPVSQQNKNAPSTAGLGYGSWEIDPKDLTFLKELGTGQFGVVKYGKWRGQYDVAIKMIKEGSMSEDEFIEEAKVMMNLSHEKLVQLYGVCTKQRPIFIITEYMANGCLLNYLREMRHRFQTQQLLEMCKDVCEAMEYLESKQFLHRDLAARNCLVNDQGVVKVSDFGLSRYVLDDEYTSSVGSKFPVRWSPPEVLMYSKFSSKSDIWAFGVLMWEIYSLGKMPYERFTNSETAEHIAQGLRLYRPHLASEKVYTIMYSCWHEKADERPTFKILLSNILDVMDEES

According to US20160159774A1 (Celgene Avilomics Research, Inc., priority 2014, published 2016):

Assays:
[1] = target: T1, BTK in Ramos human Burkitt lymphoma cells (Homo sapiens, UniProt Q06187); test: BTK Ramos cellular assay (BTK occupancy); assay type: cell-based; settings: concentration producing 50% occupancy of BTK, 1 hour incubation with compound
T1 construct: Compounds of this invention were assayed in Ramos human Burkitt lymphoma cells; endogenous in cells; host or cells: Ramos human Burkitt lymphoma cells
Experimental: BTK activity in Ramos cells, in the presence of a compound of the invention, can be measured by 3 different methods: 1) inhibition of autophosphorylation of BTK; 2) inhibition of phosphorylation of the immediate BTK surrogate PLCγ2; and 3) BTK occupancy. […] In this instance, BTK occupancy was chosen and is described below.
Compounds of this invention were assayed in Ramos human Burkitt lymphoma cells. Ramos cells were grown in suspension in T175 flasks, spun down, resuspended to a concentration of 2×10^6 cells per mL in serum-free media and incubated for 1 hour. Compound was added to Ramos cells to a final concentration of 500, 166.7, 55.6, 18.5, 6.2, 2.1, and 0.7 nM. Ramos cells were incubated with compound for 1 hour, washed with PBS and lysed in 1004 of BioRad lysis Buffer. Cell lysates were incubated with a biotinylated covalent probe (compound 1-215 disclosed in U.S. published application number 2010/0029610, incorporated by reference in its entirety) at a final concentration of 1 μM in a PBS, 0.05% Tween-20, 1% BSA solution for 1 h at room temperature. […] The ELISA was developed with addition of tetramethyl benzidine (TMB) followed by Stop Solution and read at OD 450 nm. […] Uninhibited Btk detected from samples was normalized to μg total protein as determined by BCA protein analysis (Pierce Cat. 23225). […]

activated BTK enzyme = target: T2, activated BTK enzyme (Homo sapiens, UniProt Q06187); test: Omnia assay for potency assessment against BTK; assay type: biochemical; settings: BTK inhibition assay; [BTK]=5 nM, [ATP]=40 μM, [Y5-Sox]=10 μM
T2 construct: purchased Life Technologies PV3363
Excerpt: Omnia Assay Protocol for Potency Assessment Against BTK
The protocol below describes an assay to measure potency of compounds against the activated BTK enzyme. The mechanics of the assay platform are best described by the vendor (Life Technologies, Carlsbad, Calif.) on their website at the following URLs: www.lifetechnologies.com/us/en/home/life-science/drug-discovery/target-and-lead-identification-and-validation/kinasebiology/kinase-activity-assays/omnia-kinase-assays/omnia-kinase-principle.html and tools.lifetechnologies.com/content/sfs/manuals/omnia_kinase_assay_man.pdf
Briefly, 10× stocks of BTK (PV3363) from Life Technologies, 1.13×ATP (AS00lA) and Sox conjugated peptide substrates, Y5-Sox, (KZN305l) were prepared in 1× kinase reaction buffer consisting of 20 mM Tris, pH 7.5, 5 mM MgCl2, 1 mM EGTA, 5 mM (3-glycerophosphate, 5% glycerol (10× stock, KB002A) and 0.2 mM DTT (DS00lA). 5 μL of each enzyme were pre-incubated in a Corning (#3574) 384-well, white, non-binding surface microtiter plate (Corning, N.Y.) for 30 min. at room temperature with a 0.5 μL volume of 50% DMSO or serially diluted compounds prepared in 50% DMSO. Kinase reactions were started with the addition of […] of the ATP/Tyr-Sox peptide substrate Y5 mix and monitored every 71 seconds for 60 minutes at λex360/λem485 in a Synergy4 plate reader from BioTek (Winooski, Vt.). […]

Compound: C=CC(=O)N1CCC[C@@H](Nc2nc(Nc3ccc4c(c3)CN(C3CC3)CCC4)ncc2F)C1 [Compound I-54, (R)-1-(3-(2-(2-Cyclopropyl-2,3,4,5-tetrahydro-1H-benzo[c]azepin-8-ylamino)-5-fluoropyrimidin-4-ylamino)piperidin-1-yl)prop-2-en-1-one]
- EC50 [1]: 10 to 100 nM
- IC50 (activated BTK enzyme): < 10 nM
